Among the data in PubChem BioAssay AID248 (DTP/NCI, 2004) are survivor count and T/C values, retold here.

The list shows only some results of the screen, not a fair sample: it gathers tests that were run many times, whatever their T/C, doses with no T/C, and many T/C values between a quarter and a half above the control. Further doses and runs are listed elsewhere. T/C is the treated group as % of the vehicle group. Some doses have a count of surviving animals in place of a T/C: the source holds a T/C of zero for them, seemingly a mark for toxic or unscored doses. Some survivor counts are full or nearly so, which does not show that the dose was tolerated: survival well below the control is almost never listed, so the zero probably covers shortened survival too. Counts of survivors are from the toxicity check (mostly the fifth day) where no day follows; animals may have died later. Schedule codes are those of the source, taken here to give the interval after Q, in days (D) or hours (H), and the number of doses after X. Some schedule codes hold Z or #, which are not explained here. Some entries hold several experiments; the results are listed from low to high. Where survival is the endpoint, the PubChem record calls one and a half times the control and up active, and a quarter to a half above the control has no call in these data; cut-offs in other NCI protocols can differ.

For the experiment, the system named is L1210 leukemia ip in BDF1 mice, survival T/C. Kind of experiment: NCI In Vivo Anticancer Drug Screen. Data for tumor model L1210 Leukemia (intraperitoneal) in B6D2F1 (BDF1) mice. The note with it: T/C endpoint: mean survival time, higher T/C = longer survival.
Setting [1] is: dose: 400.0 mg/kg/injection, schedule: Q01DX001 (ip), vehicle: carboxymethylcellulose (CMC).
[2] abbreviates: dose: 100.0 mg/kg/injection, schedule: Q04DX003 (ip), vehicle: Klucel (hydroxypropylcellulose) (HPC).
Setting [3] is: dose: 200.0 mg/kg/injection, schedule: Q04DX003 (ip), vehicle: Klucel (hydroxypropylcellulose) (HPC).
[4] abbreviates: dose: 400.0 mg/kg/injection, schedule: Q04DX003 (ip), vehicle: Klucel (hydroxypropylcellulose) (HPC).
Where [5] appears, read: dose: 200.0 mg/kg/injection, schedule: Q01DX009 (ip), vehicle: Klucel (hydroxypropylcellulose) (HPC).
Setting [6] is: dose: 100.0 mg/kg/injection, schedule: Q01DX001 (ip), vehicle: saline.
[7] abbreviates: dose: 400.0 mg/kg/injection, schedule: Q01DX009 (ip), vehicle: saline.

For `CC(=S)N1CCCCC1`, the survivor count is, setting by setting: (dose: 100.0 mg/kg/injection, schedule: Q01DX001 (ip), vehicle: carboxymethylcellulose (CMC)) 0 of 4; (dose: 200.0 mg/kg/injection, schedule: Q01DX001 (ip), vehicle: carboxymethylcellulose (CMC)) 0 of 4; under setting [1], 0 of 4.
Regarding `CCC(=O)c1c(C)[nH]c(C)c1C`, the survivor count under setting [2] is listed as 6 of 6, the survivor count under setting [3] is 1 of 6 and the survivor count under setting [4] was 0 of 6.
For `CC(C)(C)Sc1cc(C#N)ccn1`, the T/C by setting is: (dose: 100.0 mg/kg/injection, schedule: Q04DX003 (ip), vehicle: other) 89, 95, 96, 102 % of control; (dose: 200.0 mg/kg/injection, schedule: Q04DX003 (ip), vehicle: other) 91, 96, 99, 126 % of control; (dose: 400.0 mg/kg/injection, schedule: Q04DX003 (ip), vehicle: other) 93, 95, 96, 105 % of control.
For the compound `Cc1ccc(C)c(NC(=O)Oc2ccc3ccccc3c2)c1`, the survivor count under setting [5] was 6 of 6.
For the compound `CCCCCCCNC(C)=O`, the survivor count was 2 of 6 (dose: 100.0 mg/kg/injection, schedule: Q01DX009 (ip), vehicle: saline); 0 of 6 (dose: 200.0 mg/kg/injection, schedule: Q01DX001 (ip), vehicle: saline with Tween-80); 0 of 6 (dose: 400.0 mg/kg/injection, schedule: Q01DX001 (ip), vehicle: saline with Tween-80).
Consider `Cc1cc[n+](Cc2ccccc2)cc1`, for which the survivor count was 6 of 6 (dose: 50.0 mg/kg/injection, schedule: Q04DX003 (ip), vehicle: saline); 0 of 6 (dose: 100.0 mg/kg/injection, schedule: Q04DX003 (ip), vehicle: saline); 0 of 6 (dose: 200.0 mg/kg/injection, schedule: Q04DX003 (ip), vehicle: saline); 0 of 6 (dose: 400.0 mg/kg/injection, schedule: Q04DX003 (ip), vehicle: saline).
As for `C1O[C@@H]1[C@@H]1CO1`, the T/C reads like this: (dose: 30.0 mg/kg/injection, schedule: Q01DX015 (ip), vehicle: saline) 144 % of control; (dose: 50.0 mg/kg/injection, schedule: Q01DX015 (ip), vehicle: saline) 126 % of control; (dose: 66.0 mg/kg/injection, schedule: Q01DX001 (ip), vehicle: saline) 125 % of control; under setting [6], 138 % of control. Moreover, the survivor count runs as follows: under setting [6], 2 of 4; (dose: 150.0 mg/kg/injection, schedule: Q01DX001 (ip), vehicle: saline) 2 of 6 and 3 of 4; (dose: 200.0 mg/kg/injection, schedule: Q01DX001 (ip), vehicle: saline) 0 of 6; (dose: 400.0 mg/kg/injection, schedule: Q01DX001 (ip), vehicle: saline) 0 of 6.
Take `COC(=O)NS(=O)(=O)OC`: the survivor count (dose: 400.0 mg/kg/injection, schedule: Q04DX002 (ip), vehicle: saline) is listed as 1 of 3.
Regarding `CC1(C)N=C(N)N=C(N)N1NC(=O)c1ccc(Cl)cc1`, for the setting “dose: 400.0 mg/kg/injection, schedule: Q04DX003 (ip), vehicle: saline with Tween-80”, the survivor count was 0 of 6.
`CN=C(N)c1ccc(N=C(N)c2cccc(C(N)=Nc3ccc(C(N)=NC)cc3)c2)cc1`: the survivor count (dose: 60.0 mg/kg/injection, schedule: Q01DX Z (ip), vehicle: saline) is recorded as 0 of 6 and the survivor count (dose: 120.0 mg/kg/injection, schedule: Q01DX Z (ip), vehicle: saline) is reported as 0 of 6.
Take `CC1(C)N=C(c2ccccc2)C2(c3ccccc3)N1C2(C)C` (stereo unspecified): the survivor count is 0 of 6 (dose: 25.0 mg/kg/injection, schedule: Q01DX001 (ip), vehicle: Klucel (hydroxypropylcellulose) (HPC)); 0 of 6 (dose: 50.0 mg/kg/injection, schedule: Q01DX001 (ip), vehicle: Klucel (hydroxypropylcellulose) (HPC)); 0 of 6 (dose: 100.0 mg/kg/injection, schedule: Q01DX001 (ip), vehicle: Klucel (hydroxypropylcellulose) (HPC)); 0 of 6 (dose: 200.0 mg/kg/injection, schedule: Q01DX001 (ip), vehicle: Klucel (hydroxypropylcellulose) (HPC)); 0 of 6 (dose: 400.0 mg/kg/injection, schedule: Q01DX001 (ip), vehicle: Klucel (hydroxypropylcellulose) (HPC)).
Turning to `CN(CCc1ccccc1)/N=N/c1[nH]ncc1C(N)=O`, the T/C reads like this: (dose: 177.0 mg/kg/injection, schedule: Q01DX009 (ip), vehicle: Klucel (hydroxypropylcellulose) (HPC)) 143 % of control; (dose: 266.0 mg/kg/injection, schedule: Q01DX009 (ip), vehicle: Klucel (hydroxypropylcellulose) (HPC)) 148 % of control; (dose: 400.0 mg/kg/injection, schedule: Q01DX009 (ip), vehicle: Klucel (hydroxypropylcellulose) (HPC), evaluated on day 20) 135 % of control; (dose: 400.0 mg/kg/injection, schedule: Q01DX009 (ip), vehicle: Klucel (hydroxypropylcellulose) (HPC), evaluated on day 30) 134 % of control.
On to `CC(=O)OC1CC2(O)C(CCC3(C)C(c4ccc(=O)oc4)CCC32O)C2(C)CCC(OC3OC(CO)C(O)C(O)C3O)C=C12` (stereo unspecified), for which the survivor count (dose: 0.64 mg/kg/injection, schedule: Q01DX015 (sc), vehicle: steroid suspending solution) was 0 of 6; the survivor count (dose: 1.28 mg/kg/injection, schedule: Q01DX015 (sc), vehicle: steroid suspending solution) was 0 of 6; the survivor count (dose: 2.56 mg/kg/injection, schedule: Q01DX015 (sc), vehicle: steroid suspending solution) is 0 of 6.
In the case of `O=Cc1cc(O)ccc1[N+](=O)[O-]`, the survivor count (dose: 400.0 mg/kg/injection, schedule: Q01DX009 (ip), vehicle: saline with Tween-80) is 0 of 6.
Take `N#Cc1ccc(OC(=O)c2ccc(N=C(N)N)cc2)cc1`: the survivor count under setting [7] is listed as 3 of 6.
Consider `COc1cc([N+](=O)[O-])ccc1NC(=O)Nc1ccc(S(N)(=O)=O)cc1`, for which the survivor count (dose: 400.0 mg/kg/injection, schedule: Q04DX002 (ip), vehicle: saline with Tween-80) is 3 of 3.
As to `C#CCCCCCCCCC(=O)NCC`, the survivor count under setting [5] is 3 of 6.
`O=S1(=O)CCCCC1c1ccccc1` (stereo unspecified): under setting [7], the survivor count is reported as 6 of 6.
On to `N/C(=N\N=C\c1ccc(-c2ccccc2)cc1)N[N+](=O)[O-]`, for which, under setting [1], the survivor count is given as 2 of 4.
As for `C#CCOP(=O)(OCC)OCC`, the survivor count under setting [7] was 2 of 6.
Turning to `O=[N+]([O-])c1ccc2c(c1)OCCOCCOCCOCCO2`, the survivor count (dose: 400.0 mg/kg/injection, schedule: Q04DX002 (ip), vehicle: Klucel (hydroxypropylcellulose) (HPC)) is recorded as 1 of 3.
Consider `CCOP(=O)(N=S=O)OCC`, for which the survivor count by setting is: under setting [2], 0 of 6; under setting [3], 0 of 6; under setting [4], 0 of 6.
Take `CCOC(=O)c1c[nH]c2ccc(N(CCCl)CCCl)cc12`: the T/C by setting is: (dose: 20.0 mg/kg/injection, schedule: Q01DX001 (ip), vehicle: carboxymethylcellulose (CMC)) 125 % of control; (dose: 40.0 mg/kg/injection, schedule: Q01DX001 (ip), vehicle: carboxymethylcellulose (CMC)) 125 % of control; (dose: 80.0 mg/kg/injection, schedule: Q01DX001 (ip), vehicle: carboxymethylcellulose (CMC)) 127 % of control.
For the compound `CC(C)C(C(=O)O)N(C)N=O` (stereo unspecified), the survivor count (dose: 400.0 mg/kg/injection, schedule: Q01DX001 (ip), vehicle: acetone) is given as 2 of 6.
With `CN(C(=O)Cl)c1ccccc1`, the survivor count runs as follows: under setting [2], 3 of 6; under setting [3], 1 of 6; under setting [4], 0 of 6.
`COc1ccc(OP(=O)(N2CC2)N2CC2)cc1`: the T/C (dose: 150.0 mg/kg/injection, schedule: Q01DX Z (ip), vehicle: carboxymethylcellulose (CMC)) was 141 % of control.
As for `C/C=C(\C)C(=NC)Nc1ccc(Cl)c(Cl)c1`, the survivor count (dose: 500.0 mg/kg/injection, schedule: Q01DX Z (ip), vehicle: methylcellulose (MC)) was 0 of 6.
